# Experimental data taken from the supplement of paper PMC8728848.
# The other results are listed elsewhere or left out.
# B1: Erv46-EDTA (Saccharomyces cerevisiae), P39727 (protein)
# chain: MKFLVNVALVFMVVYISYIYAAAPEHHHHHHDYDIPTTENLYFQGAMDSVVTRPQLVVDRDRHAKLELNMDVTFPSMPCDLVNLDIMDDSGEMQLDILDAGFTMSRLNSEGRPVGDATELHVGGNGDGTAPVNNDPNYCGPCYGAKDQSQNENLAQEEKVCCQDCDAVRSAYLEAGWAFFDGKNIEQCEREGYVSKINEHLNEGCRIKGSAQINRIQGNLHFAPGKPYQNAYGHFHDTSLYDKTSNLNFNHIINHLSFGKPIQSHSKLLGNDKRHGGAVVATSPLDGRQVFPDRNTHFHQFSYFAKIVPTRYEYLDNVVIETAQFSATFHSRPLAGGRDKDHPNTLHVRGGIPGMFVFFEMSPLKVINKEQ
# Legend:
# Experiment in all cases: glycan array binding signal (z-score within array); higher = stronger binding
# Details in all cases: glycan notation: IUPAC condensed, linker removed
# Glc(b1-4)Glc = molecular target: Glc(b1-4)Glc
# Method in brief: (§1)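 From the Consortium for Functional Glycomics database, 3228 arrays were curated, keeping only those whose protein sequence was available. Binding is given as a within-array Z-score averaged across arrays sharing a protein sequence and across linkers. Negative Z-scores can be read as non-binding.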
# Glc(b1-6)Glc = molecular target: Glc(b1-6)Glc
# Method in brief: as §1
# GlcA(b1-3)Gal = molecular target: GlcA(b1-3)Gal
# Method in brief: as §1
# GlcA(b1-3)GlcNAc = molecular target: GlcA(b1-3)GlcNAc
# Method in brief: as §1
# GlcA(b1-6)Gal = molecular target: GlcA(b1-6)Gal
# Method in brief: as §1
# [1] = molecular target: GlcA3S(b1-3)Gal(b1-4)GlcNAc(b1-2)Man
# Method in brief: as §1
# [2] = molecular target: GlcA3S(b1-3)Gal(b1-4)GlcNAc(b1-3)Gal(b1-4)Glc
# Method in brief: as §1
# [3] = molecular target: GlcNAc(a1-3)Gal(b1-4)GlcNAc
# Method in brief: as §1
# [4] = molecular target: GlcNAc(a1-4)Gal(b1-3)GlcNAc
# Method in brief: as §1
# [5] = molecular target: GlcNAc(a1-4)Gal(b1-4)GalNAc
# Method in brief: as §1
# [6] = molecular target: GlcNAc(a1-4)Gal(b1-4)GlcNAc
# Method in brief: as §1
# [7] = molecular target: GlcNAc(a1-4)Gal(b1-4)GlcNAc(b1-3)Gal(b1-4)Glc
# Method in brief: as §1
# [8] = molecular target: GlcNAc(a1-4)Gal(b1-4)GlcNAc(b1-3)Gal(b1-4)GlcNAc
# Method in brief: as §1
# [9] = molecular target: GlcNAc(a1-4)Gal(b1-4)GlcNAc(b1-3)Gal(b1-4)GlcNAc(b1-3)Gal(b1-4)GlcNAc
# Method in brief: as §1
# [10] = molecular target: GlcNAc(a1-4)Gal(b1-4)GlcNAc(b1-3)Gal(b1-4)[Fuc(a1-3)]GlcNAc(b1-3)Gal(b1-4)[Fuc(a1-3)]GlcNAc
# Method in brief: as §1
# [11] = molecular target: GlcNAc(a1-6)Gal(b1-4)GlcNAc
# Method in brief: as §1
# [12] = molecular target: GlcNAc(b1-2)Gal(b1-3)GalNAc
# Method in brief: as §1
# [13] = molecular target: GlcNAc(b1-2)Man(a1-3)[GlcNAc(b1-2)Man(a1-6)]Man(b1-4)GlcNAc(b1-4)GlcNAc
# Method in brief: as §1
# [14] = molecular target: GlcNAc(b1-2)Man(a1-3)[GlcNAc(b1-2)Man(a1-6)]Man(b1-4)GlcNAc(b1-4)[Fuc(a1-6)]GlcNAc
# Method in brief: as §1
# [15] = molecular target: GlcNAc(b1-2)Man(a1-3)[GlcNAc(b1-4)][GlcNAc(b1-2)Man(a1-6)]Man(b1-4)GlcNAc(b1-4)GlcNAc
# Method in brief: as §1
# [16] = molecular target: GlcNAc(b1-2)Man(a1-3)[GlcNAc(b1-4)][GlcNAc(b1-2)Man(a1-6)]Man(b1-4)GlcNAc(b1-4)[Fuc(a1-6)]GlcNAc
# Method in brief: as §1
# [17] = molecular target: GlcNAc(b1-2)[GlcNAc(b1-4)]Man(a1-3)[GlcNAc(b1-2)Man(a1-6)]Man(b1-4)GlcNAc(b1-4)GlcNAc
# Method in brief: as §1
# [18] = molecular target: GlcNAc(b1-2)[GlcNAc(b1-4)]Man(a1-3)[GlcNAc(b1-4)][GlcNAc(b1-2)Man(a1-6)]Man(b1-4)GlcNAc(b1-4)GlcNAc
# Method in brief: as §1
# [19] = molecular target: GlcNAc(b1-2)[GlcNAc(b1-4)]Man(a1-3)[GlcNAc(b1-4)][GlcNAc(b1-2)[GlcNAc(b1-6)]Man(a1-6)]Man(b1-4)GlcNAc(b1-4)GlcNAc
# Method in brief: as §1
# [20] = molecular target: GlcNAc(b1-2)[GlcNAc(b1-4)]Man(a1-3)[GlcNAc(b1-4)][GlcNAc(b1-2)[GlcNAc(b1-6)]Man(a1-6)]Man(b1-4)GlcNAc(b1-4)[Fuc(a1-6)]GlcNAc
# Method in brief: as §1
# [21] = molecular target: GlcNAc(b1-2)[GlcNAc(b1-6)]Man(a1-6)[GlcNAc(b1-2)Man(a1-3)]Man(b1-4)GlcNAc(b1-4)GlcNAc
# Method in brief: as §1
# [22] = molecular target: GlcNAc(b1-2)[GlcNAc(b1-6)]Man(a1-6)[GlcNAc(b1-2)Man(a1-3)]Man(b1-4)GlcNAc(b1-4)[Fuc(a1-6)]GlcNAc
# Method in brief: as §1
# [23] = molecular target: GlcNAc(b1-2)[GlcNAc(b1-6)]Man(a1-6)[GlcNAc(b1-4)][GlcNAc(b1-2)Man(a1-3)]Man(b1-4)GlcNAc(b1-4)GlcNAc
# Method in brief: as §1
# GlcNAc(b1-3)Fuc = molecular target: GlcNAc(b1-3)Fuc
# Method in brief: as §1
# GlcNAc(b1-3)Gal = molecular target: GlcNAc(b1-3)Gal
# Method in brief: as §1
# [24] = molecular target: GlcNAc(b1-3)Gal(b1-3)GalNAc
# Method in brief: as §1
# GlcNAc(b1-3)Gal(b1-4)Glc = molecular target: GlcNAc(b1-3)Gal(b1-4)Glc
# Method in brief: as §1
# [25] = molecular target: GlcNAc(b1-3)Gal(b1-4)GlcNAc
# Method in brief: as §1
# [26] = molecular target: GlcNAc(b1-3)Gal(b1-4)GlcNAc(b1-2)Man(a1-3)[GlcNAc(b1-3)Gal(b1-4)GlcNAc(b1-2)Man(a1-6)]Man(b1-4)GlcNAc(b1-4)GlcNAc
# Method in brief: as §1
# [27] = molecular target: GlcNAc(b1-3)Gal(b1-4)GlcNAc(b1-2)Man(a1-3)[GlcNAc(b1-3)Gal(b1-4)GlcNAc(b1-2)Man(a1-6)]Man(b1-4)GlcNAc(b1-4)[Fuc(a1-6)]GlcNAc
# Method in brief: as §1
# [28] = molecular target: GlcNAc(b1-3)Gal(b1-4)GlcNAc(b1-2)[GlcNAc(b1-3)Gal(b1-4)GlcNAc(b1-6)]Man(a1-6)[GlcNAc(b1-3)Gal(b1-4)GlcNAc(b1-2)Man(a1-3)]Man(b1-4)GlcNAc(b1-4)GlcNAc
# Method in brief: as §1
# [29] = molecular target: GlcNAc(b1-3)Gal(b1-4)GlcNAc(b1-3)Gal(b1-4)GlcNAc
# Method in brief: as §1
# [30] = molecular target: GlcNAc(b1-3)Gal(b1-4)GlcNAc(b1-3)Gal(b1-4)GlcNAc(b1-2)Man(a1-3)[GlcNAc(b1-3)Gal(b1-4)GlcNAc(b1-3)Gal(b1-4)GlcNAc(b1-2)Man(a1-6)]Man(b1-4)GlcNAc(b1-4)GlcNAc
# Method in brief: as §1
# [31] = molecular target: GlcNAc(b1-3)Gal(b1-4)GlcNAc(b1-3)Gal(b1-4)GlcNAc(b1-2)Man(a1-3)[GlcNAc(b1-3)Gal(b1-4)GlcNAc(b1-3)Gal(b1-4)GlcNAc(b1-2)Man(a1-6)]Man(b1-4)GlcNAc(b1-4)[Fuc(a1-6)]GlcNAc
# Method in brief: as §1
# [32] = molecular target: GlcNAc(b1-3)Gal(b1-4)GlcNAc(b1-3)Gal(b1-4)GlcNAc(b1-2)[GlcNAc(b1-3)Gal(b1-4)GlcNAc(b1-3)Gal(b1-4)GlcNAc(b1-6)]Man(a1-6)[GlcNAc(b1-3)Gal(b1-4)GlcNAc(b1-3)Gal(b1-4)GlcNAc(b1-2)Man(a1-3)]Man(b1-4)GlcNAc(b1-4)[Fuc(a1-6)]GlcNAc
# Method in brief: as §1
# [33] = molecular target: GlcNAc(b1-3)Gal(b1-4)GlcNAc(b1-3)Gal(b1-4)GlcNAc(b1-3)Gal(b1-4)GlcNAc(b1-2)Man(a1-3)[GlcNAc(b1-3)Gal(b1-4)GlcNAc(b1-3)Gal(b1-4)GlcNAc(b1-3)Gal(b1-4)GlcNAc(b1-2)Man(a1-6)]Man(b1-4)GlcNAc(b1-4)GlcNAc
# Method in brief: as §1
# [34] = molecular target: GlcNAc(b1-3)Gal(b1-4)GlcNAc(b1-3)Gal(b1-4)GlcNAc(b1-3)Gal(b1-4)GlcNAc(b1-2)Man(a1-3)[GlcNAc(b1-3)Gal(b1-4)GlcNAc(b1-3)Gal(b1-4)GlcNAc(b1-3)Gal(b1-4)GlcNAc(b1-2)Man(a1-6)]Man(b1-4)GlcNAc(b1-4)[Fuc(a1-6)]GlcNAc
# Method in brief: as §1
# [35] = molecular target: GlcNAc(b1-3)Gal(b1-4)GlcNAc(b1-3)Gal(b1-4)GlcNAc(b1-3)Gal(b1-4)GlcNAc(b1-2)[GlcNAc(b1-3)Gal(b1-4)GlcNAc(b1-3)Gal(b1-4)GlcNAc(b1-3)Gal(b1-4)GlcNAc(b1-6)]Man(a1-6)[GlcNAc(b1-3)Gal(b1-4)GlcNAc(b1-3)Gal(b1-4)GlcNAc(b1-3)Gal(b1-4)GlcNAc(b1-2)Man(a1-3)]Man(b1-4)GlcNAc(b1-4)[Fuc(a1-6)]GlcNAc
# Method in brief: as §1
# [36] = molecular target: GlcNAc(b1-3)Gal(b1-4)GlcNAc(b1-3)Gal(b1-4)GlcNAc(b1-3)Gal(b1-4)GlcNAc(b1-3)Gal(b1-4)GlcNAc(b1-2)Man(a1-3)[GlcNAc(b1-3)Gal(b1-4)GlcNAc(b1-3)Gal(b1-4)GlcNAc(b1-3)Gal(b1-4)GlcNAc(b1-3)Gal(b1-4)GlcNAc(b1-2)Man(a1-6)]Man(b1-4)GlcNAc(b1-4)GlcNAc
# Method in brief: as §1
# [37] = molecular target: GlcNAc(b1-3)Gal(b1-4)GlcNAc(b1-3)Gal(b1-4)GlcNAc(b1-3)Gal(b1-4)GlcNAc(b1-3)Gal(b1-4)GlcNAc(b1-2)Man(a1-3)[GlcNAc(b1-3)Gal(b1-4)GlcNAc(b1-3)Gal(b1-4)GlcNAc(b1-3)Gal(b1-4)GlcNAc(b1-3)Gal(b1-4)GlcNAc(b1-2)Man(a1-6)]Man(b1-4)GlcNAc(b1-4)[Fuc(a1-6)]GlcNAc
# Method in brief: as §1
binder,measurement,setting,value
B1,glycan array binding signal (z-score),Glc(b1-4)Glc,0.101
same,glycan array binding signal (z-score),Glc(b1-6)Glc,-0.619
same,glycan array binding signal (z-score),GlcA(b1-3)Gal,0.464
same,glycan array binding signal (z-score),GlcA(b1-3)GlcNAc,0.344
same,glycan array binding signal (z-score),GlcA(b1-6)Gal,0.539
same,glycan array binding signal (z-score),[1],-0.462
same,glycan array binding signal (z-score),[2],-0.469
same,glycan array binding signal (z-score),[3],-0.01
same,glycan array binding signal (z-score),[4],0.016
same,glycan array binding signal (z-score),[5],-0.091
same,glycan array binding signal (z-score),[6],0.485
same,glycan array binding signal (z-score),[7],-0.465
same,glycan array binding signal (z-score),[8],-0.121
same,glycan array binding signal (z-score),[9],0.219
same,glycan array binding signal (z-score),[10],1.69
same,glycan array binding signal (z-score),[11],-0.3
same,glycan array binding signal (z-score),[12],0.093
same,glycan array binding signal (z-score),[13],-0.215
same,glycan array binding signal (z-score),[14],6.37
same,glycan array binding signal (z-score),[15],-0.327
same,glycan array binding signal (z-score),[16],-0.098
same,glycan array binding signal (z-score),[17],-0.492
same,glycan array binding signal (z-score),[18],0.02
same,glycan array binding signal (z-score),[19],-1.25
same,glycan array binding signal (z-score),[20],-0.418
same,glycan array binding signal (z-score),[21],-0.35
same,glycan array binding signal (z-score),[22],1.14
same,glycan array binding signal (z-score),[23],-0.277
same,glycan array binding signal (z-score),GlcNAc(b1-3)Fuc,-0.223
same,glycan array binding signal (z-score),GlcNAc(b1-3)Gal,-0.088
same,glycan array binding signal (z-score),[24],-0.149
same,glycan array binding signal (z-score),GlcNAc(b1-3)Gal(b1-4)Glc,-0.188
same,glycan array binding signal (z-score),[25],-0.67
same,glycan array binding signal (z-score),[26],-0.344
same,glycan array binding signal (z-score),[27],-0.047
same,glycan array binding signal (z-score),[28],2.9
same,glycan array binding signal (z-score),[29],-0.691
same,glycan array binding signal (z-score),[30],3.36
same,glycan array binding signal (z-score),[31],1.34
same,glycan array binding signal (z-score),[32],2.19
same,glycan array binding signal (z-score),[33],0.182
same,glycan array binding signal (z-score),[34],1.22
same,glycan array binding signal (z-score),[35],2.18
same,glycan array binding signal (z-score),[36],0.573
same,glycan array binding signal (z-score),[37],1.29

# Reformatted with tabs: part of the list above.
binder	measurement	setting	value
B1	glycan array binding signal (z-score)	[3]	-0.01
same	glycan array binding signal (z-score)	[4]	0.016
same	glycan array binding signal (z-score)	[10]	1.69
same	glycan array binding signal (z-score)	[14]	6.37
same	glycan array binding signal (z-score)	[17]	-0.492
same	glycan array binding signal (z-score)	[22]	1.14
same	glycan array binding signal (z-score)	GlcNAc(b1-3)Fuc	-0.223
same	glycan array binding signal (z-score)	[28]	2.9
same	glycan array binding signal (z-score)	[37]	1.29
